Assay results from paper PMC2970552, “Structural Studies of the Tandem Tudor Domains of Fragile X Mental Retardation Related Proteins FXR1 and FXR2” (PLoS ONE, 2010).
No constants are given. Whether binding was seen depends on the method and setting.

Sequences of proteins named here, by UniProt entry; tags and fusion partners are left off. Residues count along the entry.
UniProt P51114, residues 2-132: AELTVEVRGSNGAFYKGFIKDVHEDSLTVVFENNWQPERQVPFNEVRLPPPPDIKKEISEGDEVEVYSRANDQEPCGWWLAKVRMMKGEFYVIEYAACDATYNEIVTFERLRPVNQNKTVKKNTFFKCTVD
UniProt P51116, residues 14-137: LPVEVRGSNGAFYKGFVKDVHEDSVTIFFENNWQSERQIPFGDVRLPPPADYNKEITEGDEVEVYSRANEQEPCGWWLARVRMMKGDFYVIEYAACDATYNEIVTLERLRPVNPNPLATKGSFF

Key:
H3K27me3 peptide [1] = biological target: T1, H3K27me3 peptide; test: condition: FXR1 stock 1.03 mM, serial twofold dilutions; fluorescence polarisation; fluoresceinated peptide at 100 nM; FXR1 (stock 1.03 mM) or FXR2 (stock 2.4 mM) in serial twofold dilutions from 1/2 to 1/1024; 20 mM Tris-Cl pH 8.0, 50 mM NaCl, 1 mM DTT; room temperature, 30 minutes; both purified
T1 sequence (peptide, trimethyl-lysine at K27 (Kme3); fluorescein (position not stated)): QLATKAARKSAPA

H3K27me3 peptide [2] = biological target: T1, H3K27me3 peptide; test: condition: FXR2 stock 2.4 mM, serial twofold dilutions; fluorescence polarisation; fluoresceinated peptide at 100 nM; FXR1 (stock 1.03 mM) or FXR2 (stock 2.4 mM) in serial twofold dilutions from 1/2 to 1/1024; 20 mM Tris-Cl pH 8.0, 50 mM NaCl, 1 mM DTT; room temperature, 30 minutes; both purified
H3K36me3 peptide = biological target: T2, H3K36me3 peptide; test: as above
T2 sequence (peptide, trimethyl-lysine at K36 (Kme3)): PATGGVKKPHRY

H3K37me3 peptide = biological target: T3, H3K37me3 peptide; test: as above
T3 sequence (peptide, trimethyl-lysine at K37 (Kme3)): PATGGVKKPHRY

H3K79me3 peptide = biological target: T4, H3K79me3 peptide; test: as above
T4 sequence (peptide, trimethyl-lysine at K79 (Kme3)): EIAQDFKTDLRY

| Substance | binding (H3K27me3 peptide [1]) | binding (H3K27me3 peptide [2]) | binding (H3K36me3 peptide) | binding (H3K37me3 peptide) | binding (H3K79me3 peptide) |
| --- | --- | --- | --- | --- | --- |
| FXR1 tandem Tudor domains (amino acids 2 to 132 of Fragile X Mental Retardation Syndrome-related Protein 1) (from UniProt P51114 2-132) (domain or fragment) | no binding |  |  |  |  |
| FXR2 tandem Tudor domains (amino acids 14 to 137 of Fragile X Mental Retardation Syndrome-related Protein 2) (from UniProt P51116 14-137) (domain or fragment) |  | no binding | no binding | no binding | no binding |
